Results are given in words; binding and its absence hold for the method and conditions named. Some results given as binding are weak or reduced against the parent protein; the word gives no strength.

Amino acid sequences for entries named in this document (tags omitted). Residues count along the entry.
UniProt Q02763, residues 23-748: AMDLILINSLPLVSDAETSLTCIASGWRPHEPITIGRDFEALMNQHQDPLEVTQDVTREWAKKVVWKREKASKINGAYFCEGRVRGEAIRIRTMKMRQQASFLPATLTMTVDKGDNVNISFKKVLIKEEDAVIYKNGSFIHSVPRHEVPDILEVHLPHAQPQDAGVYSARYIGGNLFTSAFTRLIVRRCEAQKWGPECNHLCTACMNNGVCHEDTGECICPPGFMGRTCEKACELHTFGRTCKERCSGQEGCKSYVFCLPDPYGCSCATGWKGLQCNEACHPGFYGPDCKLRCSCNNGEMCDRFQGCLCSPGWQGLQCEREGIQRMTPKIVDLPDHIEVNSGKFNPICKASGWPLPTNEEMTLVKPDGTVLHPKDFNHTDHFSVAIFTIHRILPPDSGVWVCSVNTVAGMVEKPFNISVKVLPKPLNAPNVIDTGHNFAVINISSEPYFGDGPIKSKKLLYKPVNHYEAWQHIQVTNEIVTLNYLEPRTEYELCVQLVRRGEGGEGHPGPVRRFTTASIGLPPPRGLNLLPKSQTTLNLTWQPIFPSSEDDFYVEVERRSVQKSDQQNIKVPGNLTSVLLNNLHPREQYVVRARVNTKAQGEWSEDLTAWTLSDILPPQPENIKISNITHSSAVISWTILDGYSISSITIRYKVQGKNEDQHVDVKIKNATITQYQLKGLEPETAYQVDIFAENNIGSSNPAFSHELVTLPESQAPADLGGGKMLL
UniProt O15123, residues 19-496: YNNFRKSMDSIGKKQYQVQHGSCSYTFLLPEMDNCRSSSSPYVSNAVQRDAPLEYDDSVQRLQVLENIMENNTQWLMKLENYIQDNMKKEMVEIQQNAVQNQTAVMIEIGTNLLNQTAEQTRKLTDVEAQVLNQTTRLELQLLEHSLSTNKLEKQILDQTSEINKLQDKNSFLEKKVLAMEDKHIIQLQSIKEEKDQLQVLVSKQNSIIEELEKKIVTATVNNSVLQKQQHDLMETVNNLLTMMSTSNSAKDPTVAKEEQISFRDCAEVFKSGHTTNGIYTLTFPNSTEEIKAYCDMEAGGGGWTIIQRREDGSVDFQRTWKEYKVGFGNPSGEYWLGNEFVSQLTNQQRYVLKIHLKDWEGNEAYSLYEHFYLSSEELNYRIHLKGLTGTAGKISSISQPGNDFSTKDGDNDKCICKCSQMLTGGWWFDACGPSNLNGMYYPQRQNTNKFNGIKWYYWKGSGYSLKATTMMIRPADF

Consider 1 substance from paper PMC11799434.

The test addresses extracellular domain of human Tie2 fused with Fc (hTie2-ECD-Fc) (human) (UniProt Q02763). Kind of test: BLI; recombinant hTie2-ECD immobilised on a biosensor; buffer or MT-100 incubated with the biosensor first, then Ang-2 allowed to bind; both purified. Background: Biolayer interferometry detects binding as a change in optical thickness at a sensor tip.

For the substance “angiopoietin-2 (Ang-2) (from UniProt O15123 19-496) (ligand)”, the binding result was “binds”.
